PubChem BioAssay AID743121, NCATS | 2013

Test: 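Knock-downs that sensitise breast cancer cells to camptothecin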 (primary screen)
Cell system: MDA-MB-231 cells, a human breast cancer line
Knock-down reagent: single siRNA against human genes, 20 nM siRNA (0.8 pmol per well)
Timing: 120 h (drug added 48 h after transfection, read 72 h later)
Conditions: camptothecin 20 nM (about EC30) for 72 h; vehicle 0.1% DMSO in parallel plates
Detection: 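Cell viability by ATP luminescence (CellTiter-Glo) as % of non-targeting siRNA wells, and the log2 ratio of viability without drug over viability with camptothecin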
Reading the numbers: log2 vehicle/camptothecin viability: higher = stronger sensitisation to camptothecin; viability with camptothecin and viability without drug: higher = more viable cells
Rule for the call: 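Active genes have an RSA gene-level p-value below 0.001, computed from the ratios of their separate siRNAs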
In all, the deposit lists about 26,000 reagents; shown is an unselected part. Over the whole deposit, 167 (0.63%) are marked active. 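Calls are per gene from RSA p-values that are not deposited; an individual active-marked siRNA can sensitise only weakly.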 Reagents against one gene are numbered here. No sequences are given here.

Target gene | reagent no. | log2 vehicle/camptothecin viability | viability with camptothecin (% of control) | viability without drug (% of control) | call
SLC22A7 | 1 | -0.339 | 64.2 | 50.7 | inactive
SLC22A7 | 2 | 0.832 | 25.3 | 44.9 | inactive
SLC22A7 | 3 | -0.138 | 79.5 | 72.3 | inactive
SLC22A7 | 4 | 0.0674 | 85.8 | 89.9 | inactive
PCDHB16 (protocadherin beta 16) | 1 | 0.444 | 46.7 | 63.4 | inactive
PCDHB16 (protocadherin beta 16) | 2 | -0.0616 | 74.2 | 71.1 | inactive
PCDHB16 (protocadherin beta 16) | 3 | -0.0771 | 101 | 95.5 | inactive
PCDHB16 (protocadherin beta 16) | 4 | -0.583 | 81.6 | 54.5 | inactive
EPHB1 (EPH receptor B1) | 1 | -0.133 | 118 | 108 | inactive
EPHB1 (EPH receptor B1) | 2 | -0.511 | 81.2 | 57 | inactive
EPHB1 (EPH receptor B1) | 3 | 0.0437 | 94.2 | 97.1 | inactive
EPHB1 (EPH receptor B1) | 4 | 1.32 | 9.36 | 23.3 | inactive
KPNB1 (karyopherin subunit beta 1) | 1 | -0.434 | 24.3 | 17.9 | inactive
KPNB1 (karyopherin subunit beta 1) | 2 | -0.0947 | 37.1 | 34.8 | inactive
KPNB1 (karyopherin subunit beta 1) | 3 | 0.428 | 7.21 | 9.71 | inactive
KPNB1 (karyopherin subunit beta 1) | 4 | -0.323 | 43.9 | 35.1 | inactive
KCNA7 (potassium voltage-gated channel subfamily A member 7) | 1 | -0.091 | 35.5 | 33.3 | inactive
KCNA7 (potassium voltage-gated channel subfamily A member 7) | 2 | 0.0829 | 63.9 | 67.7 | inactive
KCNA7 (potassium voltage-gated channel subfamily A member 7) | 3 | -0.324 | 58.6 | 46.8 | inactive
KCNA7 (potassium voltage-gated channel subfamily A member 7) | 4 | -0.63 | 104 | 67.4 | inactive
C1R (complement C1r) | 1 | -0.107 | 21.8 | 20.3 | inactive
C1R (complement C1r) | 2 | -0.754 | 75.9 | 45 | inactive
C1R (complement C1r) | 3 | 0.382 | 32.1 | 41.8 | inactive
C1R (complement C1r) | 4 | -0.354 | 65.3 | 51.1 | inactive
RRM2B | 1 | 0.244 | 43.2 | 51.2 | inactive
RRM2B | 2 | -0.22 | 69.8 | 59.9 | inactive
RRM2B | 3 | -0.0955 | 87.1 | 81.5 | inactive
RRM2B | 4 | 0.233 | 35.5 | 41.7 | inactive
HEXA (hexosaminidase subunit alpha) | 1 | 0.62 | 38.3 | 58.8 | inactive
HEXA (hexosaminidase subunit alpha) | 2 | 0.137 | 88.6 | 97.4 | inactive
HEXA (hexosaminidase subunit alpha) | 3 | 0.96 | 20.5 | 40 | inactive
VPS16 (VPS16 core subunit of CORVET and HOPS complexes) | 1 | -0.195 | 114 | 99.6 | inactive
VPS16 (VPS16 core subunit of CORVET and HOPS complexes) | 2 | -0.374 | 52.3 | 40.4 | inactive
VPS16 (VPS16 core subunit of CORVET and HOPS complexes) | 3 | 0.198 | 47.8 | 54.8 | inactive
VPS16 (VPS16 core subunit of CORVET and HOPS complexes) | 4 | -0.311 | 47.1 | 38 | inactive
PRSS41 (serine protease 41) | 1 | 0.165 | 53 | 59.4 | inactive
PRSS41 (serine protease 41) | 2 | -0.101 | 110 | 103 | inactive
PRSS41 (serine protease 41) | 3 | -0.302 | 101 | 82.2 | inactive
PRSS41 (serine protease 41) | 4 | -0.0248 | 109 | 107 | inactive
H2AZ1 (H2A.Z variant histone 1) | 1 | 0.261 | 65.1 | 78 | inactive
H2AZ1 (H2A.Z variant histone 1) | 2 | -0.4 | 91.5 | 69.3 | inactive
H2AZ1 (H2A.Z variant histone 1) | 3 | -0.146 | 109 | 98.7 | inactive
H2AZ1 (H2A.Z variant histone 1) | 4 | -0.0194 | 84.3 | 83.2 | inactive
STK11 (serine/threonine kinase 11) | 1 | -0.228 | 109 | 93.5 | inactive
STK11 (serine/threonine kinase 11) | 2 | 0.0184 | 40.7 | 41.2 | inactive
STK11 (serine/threonine kinase 11) | 3 | -0.213 | 100 | 86.7 | inactive
STK11 (serine/threonine kinase 11) | 4 | -0.0237 | 64.1 | 63.1 | inactive
ARSG (arylsulfatase G) | 1 | -0.13 | 71.1 | 65 | inactive
ARSG (arylsulfatase G) | 2 | 0.304 | 48.6 | 60 | inactive
ARSG (arylsulfatase G) | 3 | 0.439 | 40.7 | 55.1 | inactive
ARSG (arylsulfatase G) | 4 | -0.0248 | 75.8 | 74.6 | inactive
RAP2C (RAP2C, member of RAS oncogene family) | 1 | 0.34 | 71.4 | 90.3 | inactive
RAP2C (RAP2C, member of RAS oncogene family) | 2 | -0.176 | 99.5 | 88.1 | inactive
RAP2C (RAP2C, member of RAS oncogene family) | 3 | 0.0986 | 78 | 83.6 | inactive
RAP2C (RAP2C, member of RAS oncogene family) | 4 | -0.255 | 83.6 | 70 | inactive
PLXNA1 (plexin A1) | 1 | 0.0964 | 78.1 | 83.5 | inactive
PLXNA1 (plexin A1) | 2 | -0.587 | 79.5 | 52.9 | inactive
PLXNA1 (plexin A1) | 3 | 0.663 | 40.1 | 63.5 | inactive
PLXNA1 (plexin A1) | 4 | -0.205 | 70.6 | 61.3 | inactive
DPYSL2 (dihydropyrimidinase like 2) | 1 | 0.195 | 21.7 | 24.8 | inactive
DPYSL2 (dihydropyrimidinase like 2) | 2 | -0.0823 | 82 | 77.5 | inactive
DPYSL2 (dihydropyrimidinase like 2) | 3 | -0.182 | 92.3 | 81.3 | inactive
CDC14A (cell division cycle 14A) | 1 | -0.347 | 75.9 | 59.7 | inactive
CDC14A (cell division cycle 14A) | 2 | -0.252 | 72.1 | 60.6 | inactive
CDC14A (cell division cycle 14A) | 3 | -0.0942 | 88.7 | 83.1 | inactive
CDC14A (cell division cycle 14A) | 4 | -0.182 | 105 | 92.9 | inactive
DNAH7 (dynein axonemal heavy chain 7) | 1 | -0.1 | 65 | 60.6 | inactive
DNAH7 (dynein axonemal heavy chain 7) | 2 | 0.435 | 34.9 | 47.1 | inactive
DNAH7 (dynein axonemal heavy chain 7) | 3 | -0.578 | 102 | 68.3 | inactive
DNAH7 (dynein axonemal heavy chain 7) | 4 | -0.135 | 79.3 | 72.2 | inactive
